Laboratory results as given in patent US20130267025A1.
No constants are given. Whether binding was seen depends on the method and setting. In cells and extracts the contact can be indirect. Some binding calls cover weakened binding; strength is not graded here.

Amino acid sequences for entries named in this document (tags omitted). A change or cut given only in a name is not applied to a line headed by its entry.
UniProt P63172: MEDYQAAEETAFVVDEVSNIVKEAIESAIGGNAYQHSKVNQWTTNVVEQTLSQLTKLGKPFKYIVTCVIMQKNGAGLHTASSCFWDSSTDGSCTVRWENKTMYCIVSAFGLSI
UniProt Q9UBP4: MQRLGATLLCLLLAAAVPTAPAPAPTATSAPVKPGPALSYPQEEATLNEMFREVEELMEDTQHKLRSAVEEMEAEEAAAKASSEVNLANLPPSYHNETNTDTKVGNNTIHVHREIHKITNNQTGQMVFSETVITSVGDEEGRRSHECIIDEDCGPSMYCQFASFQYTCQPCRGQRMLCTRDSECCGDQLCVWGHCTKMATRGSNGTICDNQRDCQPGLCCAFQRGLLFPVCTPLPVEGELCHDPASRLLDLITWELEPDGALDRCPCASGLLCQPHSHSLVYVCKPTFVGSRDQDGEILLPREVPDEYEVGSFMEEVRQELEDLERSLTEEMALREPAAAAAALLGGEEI

Legend:
[1] = molecular target: V5-tagged Tctex-1 (V5-Tctex-1 fusion protein), expressed from pcDNA3.2/V5/GW/D-TOPO (human) (UniProt P63172); assay: co-immunoprecipitation and Western blot (legend of FIG. 18B)
[2] = molecular target: V5-tagged Tctex-1 (V5-Tctex-1 fusion protein), expressed from pcDNA3.2/V5/GW/D-TOPO (human) (UniProt P63172); assay: co-immunoprecipitation with anti-Myc antibody from 293T lysates, Western blot with V5 antibody

- binding [1]: binds
- binding [2]: binds
Substance: Myc-tagged REIC/Dkk-3 (Myc-REIC/Dkk-3 fusion protein), expressed in 293T cells (from UniProt Q9UBP4 22-350)
